This is an account of results in article PMC3727213.

The chains behind the UniProt entries cited, without tags or fusion partners. Where a name states a change or a piece, a line headed by the entry shows the natural chain unless it says otherwise.
UniProt P41279: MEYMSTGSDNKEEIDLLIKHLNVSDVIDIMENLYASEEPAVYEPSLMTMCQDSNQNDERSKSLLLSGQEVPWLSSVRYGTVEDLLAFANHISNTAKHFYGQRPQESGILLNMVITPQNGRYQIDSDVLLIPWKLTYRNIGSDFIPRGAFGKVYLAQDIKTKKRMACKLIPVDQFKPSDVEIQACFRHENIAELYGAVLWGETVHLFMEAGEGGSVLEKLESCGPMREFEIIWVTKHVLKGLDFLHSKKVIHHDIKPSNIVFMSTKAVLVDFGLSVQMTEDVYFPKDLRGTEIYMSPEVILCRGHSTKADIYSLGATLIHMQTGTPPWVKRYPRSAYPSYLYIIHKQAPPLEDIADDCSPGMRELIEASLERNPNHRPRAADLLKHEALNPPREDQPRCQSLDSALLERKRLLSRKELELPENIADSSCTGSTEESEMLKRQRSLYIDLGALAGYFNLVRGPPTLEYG
UniProt P19838: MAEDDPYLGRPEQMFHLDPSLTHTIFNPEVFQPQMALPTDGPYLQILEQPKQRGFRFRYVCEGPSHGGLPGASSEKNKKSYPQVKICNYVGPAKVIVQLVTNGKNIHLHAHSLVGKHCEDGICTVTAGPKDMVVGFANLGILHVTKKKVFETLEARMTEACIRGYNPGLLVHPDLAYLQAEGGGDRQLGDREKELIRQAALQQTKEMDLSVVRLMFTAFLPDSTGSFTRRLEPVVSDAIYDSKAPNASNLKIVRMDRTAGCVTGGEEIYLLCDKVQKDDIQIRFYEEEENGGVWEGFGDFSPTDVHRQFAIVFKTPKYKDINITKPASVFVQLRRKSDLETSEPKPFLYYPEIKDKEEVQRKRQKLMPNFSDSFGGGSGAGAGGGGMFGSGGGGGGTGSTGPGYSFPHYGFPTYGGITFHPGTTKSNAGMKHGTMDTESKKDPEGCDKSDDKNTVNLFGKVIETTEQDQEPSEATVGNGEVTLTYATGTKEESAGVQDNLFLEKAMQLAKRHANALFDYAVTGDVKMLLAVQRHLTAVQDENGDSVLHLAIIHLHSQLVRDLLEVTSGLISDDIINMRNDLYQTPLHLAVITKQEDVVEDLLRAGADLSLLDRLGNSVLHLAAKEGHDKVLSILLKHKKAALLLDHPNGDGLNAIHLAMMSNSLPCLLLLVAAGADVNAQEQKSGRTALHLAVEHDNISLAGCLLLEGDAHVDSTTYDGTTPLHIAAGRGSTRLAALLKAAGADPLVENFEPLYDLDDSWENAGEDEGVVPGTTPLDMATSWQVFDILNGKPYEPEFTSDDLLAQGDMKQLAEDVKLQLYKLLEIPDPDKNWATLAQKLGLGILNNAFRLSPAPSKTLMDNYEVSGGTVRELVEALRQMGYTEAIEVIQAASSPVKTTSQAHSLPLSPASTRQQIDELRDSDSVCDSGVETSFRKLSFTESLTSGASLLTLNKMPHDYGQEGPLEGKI

No constants are given. Whether binding was seen depends on the method and setting. Some results given as binding are weak or reduced against the parent protein; the word gives no strength. For some of these results: Where a sequence is shown, tags or fusion partners need not be part of it.

Holding throughout (assay): SEC
On the technique in general: Size exclusion chromatography separates by hydrodynamic size, large species first.

Assay [1] deals with T1, C-terminally StrepII-tagged ABIN-2 (A20-binding inhibitor of NF-κB 2) (UniProt Q8NFZ5).
T1 sequence: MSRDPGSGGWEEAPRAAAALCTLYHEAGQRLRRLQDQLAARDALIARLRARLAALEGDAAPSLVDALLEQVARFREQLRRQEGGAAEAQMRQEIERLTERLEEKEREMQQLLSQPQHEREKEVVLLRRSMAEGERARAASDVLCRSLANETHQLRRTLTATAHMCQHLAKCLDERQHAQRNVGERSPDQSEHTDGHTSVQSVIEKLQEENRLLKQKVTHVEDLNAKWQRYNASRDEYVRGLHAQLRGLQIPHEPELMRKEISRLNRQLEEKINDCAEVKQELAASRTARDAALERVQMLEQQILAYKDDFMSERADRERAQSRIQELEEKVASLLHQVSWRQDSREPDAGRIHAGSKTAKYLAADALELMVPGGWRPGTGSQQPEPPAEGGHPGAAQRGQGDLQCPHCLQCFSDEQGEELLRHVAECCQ

In assay [2] the target is His6-tagged TPL-2 (tumour progression locus 2) (human) (UniProt P41279).
In assay [3] the target is recombinant His6–TPL-2–ABIN-2–StrepII–HA–p105 complex (UniProt P41279).

Take “HA (haemagglutinin)-tagged NF-κB1 p105 (from UniProt P19838 1-968)”: the binding result in assay [1] and in assay [2] was “binds” in each case.

For the molecule NF-κB1 p50 (from UniProt P19838 1-433), the binding entry in assay [3] was “binds”.

B1: C-terminally StrepII-tagged ABIN-2 (A20-binding inhibitor of NF-κB 2) (protein, UniProt Q8NFZ5-1 1-429)
chain: MSRDPGSGGWEEAPRAAAALCTLYHEAGQRLRRLQDQLAARDALIARLRARLAALEGDAAPSLVDALLEQVARFREQLRRQEGGAAEAQMRQEIERLTERLEEKEREMQQLLSQPQHEREKEVVLLRRSMAEGERARAASDVLCRSLANETHQLRRTLTATAHMCQHLAKCLDERQHAQRNVGERSPDQSEHTDGHTSVQSVIEKLQEENRLLKQKVTHVEDLNAKWQRYNASRDEYVRGLHAQLRGLQIPHEPELMRKEISRLNRQLEEKINDCAEVKQELAASRTARDAALERVQMLEQQILAYKDDFMSERADRERAQSRIQELEEKVASLLHQVSWRQDSREPDAGRIHAGSKTAKYLAADALELMVPGGWRPGTGSQQPEPPAEGGHPGAAQRGQGDLQCPHCLQCFSDEQGEELLRHVAECCQ
In the case of B1, the binding result in assay [2] was “binds”.
